Source: PubChem BioAssay AID248 (DTP/NCI, 2004)
The list shows only some results of the screen, not a fair sample: it gathers some chemical classes. Other doses and runs of a compound may be missing. T/C is the treated group as % of the vehicle group. For survival time, the PubChem record calls one and a half times the control and up active, and a quarter to a half above the control has no call in these data; cut-offs in other NCI protocols can differ. Some entries show no survivor count and are marked so; the dose need not have been tolerated. Schedule codes are those of the source, taken here to give the interval after Q, in days (D) or hours (H), and the number of doses after X. Some doses were run more than once; the results are listed from low to high. Some schedules carry Z or #; the key to these is not given.

Test system: L1210 leukemia ip in BDF1 mice, survival T/C
Assay: NCI In Vivo Anticancer Drug Screen. Data for tumor model L1210 Leukemia (intraperitoneal) in B6D2F1 (BDF1) mice
Conditions: higher T/C = longer survival
[1] = T/C endpoint: mean survival time, dose: 100.0 mg/kg/injection, schedule: Q01DX009 (ip), vehicle: saline
[2] = T/C endpoint: mean survival time, dose: 100.0 mg/kg/injection, schedule: Q04DX003 (ip), vehicle: saline
[3] = T/C endpoint: mean survival time, dose: 200.0 mg/kg/injection, schedule: Q01DX009 (ip), vehicle: saline
[4] = T/C endpoint: mean survival time, dose: 200.0 mg/kg/injection, schedule: Q04DX003 (ip), vehicle: saline
[5] = T/C endpoint: mean survival time, dose: 400.0 mg/kg/injection, schedule: Q04DX003 (ip), vehicle: saline
[6] = T/C endpoint: mean survival time, dose: 50.0 mg/kg/injection, schedule: Q01DX009 (ip), vehicle: DMSO
[7] = T/C endpoint: mean survival time, dose: 25.0 mg/kg/injection, schedule: Q01DX001 (ip), vehicle: saline

Structure (SMILES): CCOC(=O)N1CCC(=O)CC1
- T/C (T/C endpoint: mean survival time, dose: 100.0 mg/kg/injection, schedule: Q01DX001 (ip), vehicle: saline): 100 % of control [survivor count not shown]
- T/C [1]: 102 % of control [survivor count not shown]
- T/C [2]: 100 % of control [survivor count not shown]
- T/C (T/C endpoint: mean survival time, dose: 200.0 mg/kg/injection, schedule: Q01DX001 (ip), vehicle: saline): 105 % of control [survivor count not shown]
- T/C [3]: 96 % of control [survivor count not shown]
- T/C [4]: 110 % of control [survivor count not shown]
- T/C (T/C endpoint: mean survival time, dose: 400.0 mg/kg/injection, schedule: Q01DX001 (ip), vehicle: saline): 98 % of control [survivor count not shown]
- T/C (T/C endpoint: mean survival time, dose: 400.0 mg/kg/injection, schedule: Q01DX009 (ip), vehicle: saline): 100 % of control [survivor count not shown]
- T/C [5]: 107 % of control [survivor count not shown]

Structure (SMILES): CCN(CC)P(=O)(Cl)OC (configuration not stated)
- T/C (T/C endpoint: mean survival time, dose: 12.5 mg/kg/injection, schedule: Q01DX009 (ip), vehicle: DMSO): 92 % of control [survivor count not shown]
- T/C [6]: 87 [survivor count not shown] and 99 % of control [survivor count not shown]

Structure (SMILES): ClCC[N+]1(CCCl)CCCCC1
- T/C (T/C endpoint: mean survival time, dose: 12.5 mg/kg/injection, schedule: Q01DX001 (ip), vehicle: saline): 111 % of control [survivor count not shown]
- T/C [7]: 100 % of control [survivor count not shown]
- T/C (T/C endpoint: mean survival time, dose: 50.0 mg/kg/injection, schedule: Q01DX001 (ip), vehicle: saline): 97 % of control [survivor count not shown]

Structure (SMILES): NN(CCCl)CCCl
- T/C (T/C endpoint: mean survival time, dose: 0.75 mg/kg/injection, schedule: Q01DX009 (ip), vehicle: saline): 106 % of control [survivor count not shown]
- T/C (T/C endpoint: mean survival time, dose: 1.5 mg/kg/injection, schedule: Q01DX009 (ip), vehicle: saline): 106 % of control [survivor count not shown]
- T/C (T/C endpoint: mean survival time, dose: 2.5 mg/kg/injection, schedule: Q01DX009 (ip), vehicle: saline): 126 % of control [survivor count not shown]
- T/C (T/C endpoint: mean survival time, dose: 3.0 mg/kg/injection, schedule: Q01DX009 (ip), vehicle: saline): 102 % of control [survivor count not shown]
- T/C (T/C endpoint: mean survival time, dose: 3.8 mg/kg/injection, schedule: Q01DX009 (ip), vehicle: saline): 134 % of control [survivor count not shown]
- T/C (T/C endpoint: mean survival time, dose: 5.8 mg/kg/injection, schedule: Q01DX009 (ip), vehicle: saline): 131 [survivor count not shown] and 158 % of control [survivor count not shown]
- T/C (T/C endpoint: mean survival time, dose: 5.91 mg/kg/injection, schedule: Q01DX009 (ip), vehicle: saline): 140 % of control [survivor count not shown]
- T/C (T/C endpoint: mean survival time, dose: 6.0 mg/kg/injection, schedule: Q01DX009 (ip), vehicle: saline): 130 % of control [survivor count not shown]
- T/C (T/C endpoint: mean survival time, dose: 8.8 mg/kg/injection, schedule: Q01DX009 (ip), vehicle: saline): 156 % of control [survivor count not shown]
- T/C (T/C endpoint: mean survival time, dose: 10.0 mg/kg/injection, schedule: Q01DX001 (ip), vehicle: saline): 117 % of control [survivor count not shown]
- T/C (T/C endpoint: mean survival time, dose: 10.13 mg/kg/injection, schedule: Q01DX009 (ip), vehicle: saline): 141 % of control [survivor count not shown]
- T/C (T/C endpoint: mean survival time, dose: 13.3 mg/kg/injection, schedule: Q01DX009 (ip), vehicle: saline): 129 % of control [survivor count not shown]
- T/C (T/C endpoint: mean survival time, dose: 16.6 mg/kg/injection, schedule: Q01DX001 (ip), vehicle: saline): 139 [survivor count not shown] and 144 % of control [survivor count not shown]
- T/C (T/C endpoint: mean survival time, dose: 16.65 mg/kg/injection, schedule: Q01DX001 (ip), vehicle: saline): 141 % of control [survivor count not shown]
- T/C (T/C endpoint: mean survival time, dose: 16.88 mg/kg/injection, schedule: Q01DX009 (ip), vehicle: saline): 100 % of control [survivor count not shown]
- T/C (T/C endpoint: mean survival time, dose: 18.75 mg/kg/injection, schedule: Q01DX001 (ip), vehicle: saline): 152 % of control [survivor count not shown]
- T/C [7]: 138 [survivor count not shown] and 152 % of control [survivor count not shown]
- T/C (T/C endpoint: mean survival time, dose: 37.5 mg/kg/injection, schedule: Q01DX001 (ip), vehicle: saline): 106 [survivor count not shown], 111 [survivor count not shown], 155 % of control [survivor count not shown]
- T/C (T/C endpoint: mean survival time, dose: 56.25 mg/kg/injection, schedule: Q01DX001 (ip), vehicle: saline): 143 % of control [survivor count not shown]

Structure (SMILES): CCN(CC)P(=O)(Cl)N(CCCl)CCCl (configuration not stated)
- T/C (T/C endpoint: mean survival time, dose: 100.0 mg/kg/injection, schedule: Q04DX002 (ip), vehicle: DMSO): 115 % of control [survivor count not shown]
- T/C (T/C endpoint: mean survival time, dose: 200.0 mg/kg/injection, schedule: Q04DX002 (ip), vehicle: DMSO): 112 % of control [survivor count not shown]

Structure (SMILES): O=c1oc(CCN(CCCl)CCCl)nc2ccccc12
- T/C (T/C endpoint: mean survival time, dose: 50.0 mg/kg/injection, schedule: Q04DX002 (ip), vehicle: Klucel (hydroxypropylcellulose) (HPC)): 116 % of control [survivor count not shown]
- T/C (T/C endpoint: mean survival time, dose: 100.0 mg/kg/injection, schedule: Q04DX002 (ip), vehicle: Klucel (hydroxypropylcellulose) (HPC)): 116 [survivor count not shown] and 138 % of control [survivor count not shown]
- T/C (T/C endpoint: mean survival time, dose: 200.0 mg/kg/injection, schedule: Q04DX002 (ip), vehicle: Klucel (hydroxypropylcellulose) (HPC)): 159 [survivor count not shown] and 162 % of control [survivor count not shown]

Structure (SMILES): CCCCOc1ccc(N(CCCl)CCCl)cc1
- T/C (T/C endpoint: mean survival time, dose: 25.0 mg/kg/injection, schedule: Q01DX Z (ip), vehicle: carboxymethylcellulose (CMC)): 104 % of control [survivor count not shown]
- T/C (T/C endpoint: mean survival time, dose: 38.0 mg/kg/injection, schedule: Q01DX Z (ip), vehicle: carboxymethylcellulose (CMC)): 121 % of control [survivor count not shown]
- T/C (T/C endpoint: mean survival time, dose: 56.0 mg/kg/injection, schedule: Q01DX Z (ip), vehicle: carboxymethylcellulose (CMC)): 109 % of control [survivor count not shown]
- T/C (T/C endpoint: mean survival time, dose: 56.0 mg/kg/injection, schedule: Q01DX Z (ip), vehicle: methylcellulose (MC)): 131 % of control [survivor count not shown]
- T/C (T/C endpoint: mean survival time, dose: 100.0 mg/kg/injection, schedule: Q01DX Z (ip), vehicle: carboxymethylcellulose (CMC)): 96 % of control [survivor count not shown]
- T/C (T/C endpoint: mean survival time, dose: 175.0 mg/kg/injection, schedule: Q01DX Z (ip), vehicle: carboxymethylcellulose (CMC)): 106 % of control [survivor count not shown]
- T/C (T/C endpoint: mean survival time, dose: 250.0 mg/kg/injection, schedule: Q01DX Z (ip), vehicle: carboxymethylcellulose (CMC)): 102 % of control [survivor count not shown]

Structure (SMILES): ClCCN1C(c2ccccc2)C1c1ccccc1 (configuration not stated)
- T/C (T/C endpoint: mean survival time, dose: 100.0 mg/kg/injection, schedule: Q04DX003 (ip), vehicle: Klucel (hydroxypropylcellulose) (HPC)): 96 % of control [survivor count not shown]
- T/C (T/C endpoint: mean survival time, dose: 200.0 mg/kg/injection, schedule: Q04DX003 (ip), vehicle: Klucel (hydroxypropylcellulose) (HPC)): 97 % of control [survivor count not shown]

Structure (SMILES): Cc1ccc(NC2(C(N)=O)CCNCC2)cc1
- T/C [1]: 94 % of control [survivor count not shown]
- T/C [2]: 96 % of control [survivor count not shown]
- T/C [3]: 95 % of control [survivor count not shown]
- T/C [4]: 94 % of control [survivor count not shown]
- T/C [5]: 94 % of control [survivor count not shown]

Structure (SMILES): CCCCOP(=O)(Cl)N(CC)CC (configuration not stated)
- T/C [6]: 105 % of control [survivor count not shown]
- T/C (T/C endpoint: mean survival time, dose: 100.0 mg/kg/injection, schedule: Q01DX009 (ip), vehicle: DMSO): 94 % of control [survivor count not shown]

Structure (SMILES): O/N=C/c1ccc(N(CCCl)CCCl)cc1
- T/C (T/C endpoint: median survival time, dose: 100.0 mg/kg/injection, schedule: Q01DX009 (ip), vehicle: Klucel (hydroxypropylcellulose) (HPC)): 100 % of control [survivor count not shown]
- T/C (T/C endpoint: median survival time, dose: 200.0 mg/kg/injection, schedule: Q01DX009 (ip), vehicle: Klucel (hydroxypropylcellulose) (HPC)): 116 % of control [survivor count not shown]
- T/C (T/C endpoint: median survival time, dose: 400.0 mg/kg/injection, schedule: Q01DX009 (ip), vehicle: Klucel (hydroxypropylcellulose) (HPC)): 110 % of control [survivor count not shown]
